# Test results from article PMC3355116.
# The chains behind the UniProt entries cited, without tags or fusion partners.
# UniProt P41212: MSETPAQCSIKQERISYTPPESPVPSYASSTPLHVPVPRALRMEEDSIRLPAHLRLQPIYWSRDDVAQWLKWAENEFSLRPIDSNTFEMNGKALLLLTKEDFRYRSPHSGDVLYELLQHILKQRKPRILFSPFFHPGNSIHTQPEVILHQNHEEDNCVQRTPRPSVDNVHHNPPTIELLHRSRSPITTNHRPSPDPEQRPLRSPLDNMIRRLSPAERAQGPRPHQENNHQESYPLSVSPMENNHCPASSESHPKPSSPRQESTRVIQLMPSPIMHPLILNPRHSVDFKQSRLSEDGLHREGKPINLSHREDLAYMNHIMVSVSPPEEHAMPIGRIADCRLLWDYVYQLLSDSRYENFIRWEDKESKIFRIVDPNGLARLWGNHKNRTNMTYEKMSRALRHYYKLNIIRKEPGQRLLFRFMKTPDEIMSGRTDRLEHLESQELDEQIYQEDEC
# No constants are given. Whether binding was seen depends on the method and setting. In cells and extracts the contact can be indirect. Some results given as binding are weak or reduced against the parent protein; the word gives no strength. Sequences can lack the tags named with a protein.
# Target: T1, myc-TEL2SAM (human) (UniProt Q9Y603)
# T1 sequence: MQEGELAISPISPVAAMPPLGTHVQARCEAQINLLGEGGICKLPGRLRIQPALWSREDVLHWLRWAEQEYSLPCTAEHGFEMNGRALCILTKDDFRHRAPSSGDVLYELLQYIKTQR
# Assay: co-IP; cotransfected HeLa cells lysed by sonication (50 mM Tris pH 7.5, 100 mM NaCl, 1 mM EDTA, 1% Triton-X); Myc agarose beads overnight at 4°C; washes with 0.25% Triton-X; western blot
substance,measurement,value
HA-TEL1 (from UniProt P41212 1-452),binding,binds
